Patent publication US9169219B2, “Herbicidally active 4-nitro-substituted N-(tetrazol-5-yl)-, N-(triazol-5-yl)-, and N-(1,3,4-0XADIAZOL-2-yl)aryl carboxylic acid amides” (BAYER INTELLECTUAL PROPERTY GMBH, priority 2012, dated 2015)
Some results were stated once for a whole list of compounds, not compound by compound.

Assays:
Stellaria media = assay: Post-emergence herbicidal action against weed plants; format: in vivo; conditions: one-leaf stage, 80 g/ha, visual assessment after about 3 weeks vs untreated controls (100% = plants have died)
Experimental: (§1) 2. Post-emergence Herbicidal Action Against Weed Plants Seeds of monocotyledonous and dicotyledonous weed and crop plants are placed in sandy loam in wood-fiber pots, covered with soil and cultivated in a greenhouse under good growth conditions. 2 to 3 weeks after sowing, the test plants are treated at the one-leaf stage. The inventive compounds formulated in the form of wettable powders (WP) or as emulsion concentrates (EC) are then sprayed onto the green parts of the plants as an aqueous suspension or emulsion at a water application rate of 600 to 800 I/ha (converted) with addition of 0.2% wetting agent. After the test plants have been left to stand in the greenhouse under optimal growth conditions for about 3 weeks, the action of the formulations is assessed visually in comparison to untreated controls (herbicidal action in percent (%): 100% activity=the plants have died, 0% activity=like control plants).

Abutilon theophrasti = assay: as above; format: in vivo; conditions: one-leaf stage, 80 g/ha, visual assessment after about 3 weeks vs untreated controls (100% = plants have died)
Experimental: as §1

Structure (SMILES): Cn1nnnc1NC(=O)c1ccc([N+](=O)[O-])c(OCC2CCCO2)c1Cl (stereo not shown) [1-79]
- herbicidal activity against Stellaria media (Stellaria media): at least 80%
- herbicidal activity against Abutilon theophrasti (Abutilon theophrasti): at least 80%

Structure (SMILES): Cc1c(C(=O)Nc2nnnn2C)ccc([N+](=O)[O-])c1OCC1CCCO1 (stereo not shown) [1-121]
- herbicidal activity against Stellaria media (Stellaria media): at least 80%
- herbicidal activity against Abutilon theophrasti (Abutilon theophrasti): at least 80%
